Source: paper PMC9233733
These are yes or no findings as the source states them, for the method shown. Some binding calls cover weakened binding; strength is not graded here.

Amino acid sequences for entries named in this document (tags omitted).
UniProt Q5U249: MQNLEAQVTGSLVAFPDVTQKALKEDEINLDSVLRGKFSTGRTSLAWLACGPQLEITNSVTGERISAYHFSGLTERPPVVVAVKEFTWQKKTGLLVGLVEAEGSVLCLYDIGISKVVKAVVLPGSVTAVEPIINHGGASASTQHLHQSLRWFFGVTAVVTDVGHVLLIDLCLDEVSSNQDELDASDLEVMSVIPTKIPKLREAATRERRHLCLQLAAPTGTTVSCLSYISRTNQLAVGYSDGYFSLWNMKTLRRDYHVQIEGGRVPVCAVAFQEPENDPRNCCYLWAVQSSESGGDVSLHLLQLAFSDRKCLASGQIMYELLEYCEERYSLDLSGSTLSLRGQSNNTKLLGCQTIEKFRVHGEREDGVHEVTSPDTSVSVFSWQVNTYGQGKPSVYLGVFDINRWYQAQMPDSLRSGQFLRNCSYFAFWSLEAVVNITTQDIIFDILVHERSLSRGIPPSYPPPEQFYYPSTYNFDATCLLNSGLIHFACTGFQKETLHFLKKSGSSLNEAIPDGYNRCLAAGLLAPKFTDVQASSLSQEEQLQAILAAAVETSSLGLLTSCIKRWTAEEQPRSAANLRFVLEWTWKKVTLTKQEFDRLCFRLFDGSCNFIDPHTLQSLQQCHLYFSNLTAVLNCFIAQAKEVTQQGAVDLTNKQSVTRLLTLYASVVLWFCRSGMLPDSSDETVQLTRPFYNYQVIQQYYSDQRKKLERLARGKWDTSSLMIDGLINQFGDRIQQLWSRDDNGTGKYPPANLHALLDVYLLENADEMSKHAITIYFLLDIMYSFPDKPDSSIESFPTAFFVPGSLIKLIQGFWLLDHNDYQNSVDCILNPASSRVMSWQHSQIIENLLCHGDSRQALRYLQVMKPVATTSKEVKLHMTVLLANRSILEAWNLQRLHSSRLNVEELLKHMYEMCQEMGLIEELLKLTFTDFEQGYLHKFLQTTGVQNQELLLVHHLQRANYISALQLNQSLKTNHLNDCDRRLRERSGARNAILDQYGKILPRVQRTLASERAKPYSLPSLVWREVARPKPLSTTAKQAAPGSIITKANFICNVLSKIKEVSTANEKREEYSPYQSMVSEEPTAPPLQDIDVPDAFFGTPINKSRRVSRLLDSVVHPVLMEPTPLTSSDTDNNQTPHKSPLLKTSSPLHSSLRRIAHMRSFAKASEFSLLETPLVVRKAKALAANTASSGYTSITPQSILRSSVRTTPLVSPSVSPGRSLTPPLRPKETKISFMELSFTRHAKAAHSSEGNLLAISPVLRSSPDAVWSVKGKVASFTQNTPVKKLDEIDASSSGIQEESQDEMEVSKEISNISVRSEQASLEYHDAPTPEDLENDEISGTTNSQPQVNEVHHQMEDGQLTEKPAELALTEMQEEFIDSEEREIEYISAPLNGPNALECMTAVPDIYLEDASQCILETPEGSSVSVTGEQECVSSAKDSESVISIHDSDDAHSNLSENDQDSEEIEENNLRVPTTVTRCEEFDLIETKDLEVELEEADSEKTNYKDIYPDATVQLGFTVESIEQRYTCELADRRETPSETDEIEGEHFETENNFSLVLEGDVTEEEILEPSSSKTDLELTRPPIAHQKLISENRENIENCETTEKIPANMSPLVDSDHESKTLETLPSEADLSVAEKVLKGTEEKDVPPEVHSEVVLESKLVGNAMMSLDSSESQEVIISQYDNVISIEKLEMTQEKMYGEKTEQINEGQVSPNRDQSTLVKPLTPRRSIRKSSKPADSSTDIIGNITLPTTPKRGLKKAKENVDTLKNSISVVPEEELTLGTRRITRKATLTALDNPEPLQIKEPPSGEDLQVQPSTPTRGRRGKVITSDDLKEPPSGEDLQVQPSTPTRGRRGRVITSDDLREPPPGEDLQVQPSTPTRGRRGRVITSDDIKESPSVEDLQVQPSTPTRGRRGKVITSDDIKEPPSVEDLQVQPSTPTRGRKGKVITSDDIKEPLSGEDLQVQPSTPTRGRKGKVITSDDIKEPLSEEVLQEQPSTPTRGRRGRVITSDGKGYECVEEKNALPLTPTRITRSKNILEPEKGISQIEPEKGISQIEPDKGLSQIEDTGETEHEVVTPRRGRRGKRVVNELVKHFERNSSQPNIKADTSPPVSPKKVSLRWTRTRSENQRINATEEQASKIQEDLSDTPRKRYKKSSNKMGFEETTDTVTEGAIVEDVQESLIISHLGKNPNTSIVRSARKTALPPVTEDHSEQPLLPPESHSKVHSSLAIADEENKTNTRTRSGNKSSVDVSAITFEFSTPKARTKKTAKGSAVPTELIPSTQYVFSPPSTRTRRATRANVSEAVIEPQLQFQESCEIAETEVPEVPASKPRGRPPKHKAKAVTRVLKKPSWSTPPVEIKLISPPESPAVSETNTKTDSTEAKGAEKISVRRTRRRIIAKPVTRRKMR

Target: T1, Nup85 (Xenopus laevis (endogenous in oocytes)) (UniProt Q68FJ0)
T1 sequence: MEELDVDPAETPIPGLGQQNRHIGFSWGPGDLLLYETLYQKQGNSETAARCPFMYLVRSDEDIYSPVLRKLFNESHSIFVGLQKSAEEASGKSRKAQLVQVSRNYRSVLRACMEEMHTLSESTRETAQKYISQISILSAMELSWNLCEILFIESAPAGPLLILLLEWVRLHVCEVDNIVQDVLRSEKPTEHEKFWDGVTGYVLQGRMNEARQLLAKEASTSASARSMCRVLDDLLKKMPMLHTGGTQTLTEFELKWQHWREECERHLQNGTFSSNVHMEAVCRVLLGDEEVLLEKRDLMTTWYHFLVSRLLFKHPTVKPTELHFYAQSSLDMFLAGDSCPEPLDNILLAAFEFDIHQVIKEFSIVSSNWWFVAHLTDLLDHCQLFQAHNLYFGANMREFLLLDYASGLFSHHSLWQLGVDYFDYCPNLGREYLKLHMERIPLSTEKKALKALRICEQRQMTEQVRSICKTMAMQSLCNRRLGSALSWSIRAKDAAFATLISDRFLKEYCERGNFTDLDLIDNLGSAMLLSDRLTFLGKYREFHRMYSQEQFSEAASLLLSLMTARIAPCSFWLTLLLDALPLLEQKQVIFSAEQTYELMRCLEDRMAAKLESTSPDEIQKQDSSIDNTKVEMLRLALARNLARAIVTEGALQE
Assay: cryo-EM structure; nuclear ring (NR) subunit of NPCs in the X. laevis oocyte nuclear envelope spread on the grid in HEPES buffer (83 mmol/L KCl, 17 mmol/L NaCl, 10 mmol/L HEPES, pH 7.5), cross-linked with 0.15% glutaraldehyde; single particle analysis, maps at 8.1 Å (subunit), 7.8 Å (core), 8.6 Å (Nup133 region); AlphaFold2 models fitted by MDFF

Substance: ELYS (embryonic large molecule derived from the yolk sac) (from UniProt Q5U249 1-2408)
- binding: binds
